Reference: the supplement of paper PMC12819154, “High-throughput peptide-centric local stability assay extends protein–ligand identification to membrane proteins, tissues and bacteria” (Nature Structural & Molecular Biology, 2025)
The list shows a part of the results. Most entries show no effect beyond the scatter of the controls.

The chains behind the UniProt entries cited, without tags or fusion partners. Where a name states a change or a piece, a line headed by the entry shows the natural chain unless it says otherwise.
UniProt P09803: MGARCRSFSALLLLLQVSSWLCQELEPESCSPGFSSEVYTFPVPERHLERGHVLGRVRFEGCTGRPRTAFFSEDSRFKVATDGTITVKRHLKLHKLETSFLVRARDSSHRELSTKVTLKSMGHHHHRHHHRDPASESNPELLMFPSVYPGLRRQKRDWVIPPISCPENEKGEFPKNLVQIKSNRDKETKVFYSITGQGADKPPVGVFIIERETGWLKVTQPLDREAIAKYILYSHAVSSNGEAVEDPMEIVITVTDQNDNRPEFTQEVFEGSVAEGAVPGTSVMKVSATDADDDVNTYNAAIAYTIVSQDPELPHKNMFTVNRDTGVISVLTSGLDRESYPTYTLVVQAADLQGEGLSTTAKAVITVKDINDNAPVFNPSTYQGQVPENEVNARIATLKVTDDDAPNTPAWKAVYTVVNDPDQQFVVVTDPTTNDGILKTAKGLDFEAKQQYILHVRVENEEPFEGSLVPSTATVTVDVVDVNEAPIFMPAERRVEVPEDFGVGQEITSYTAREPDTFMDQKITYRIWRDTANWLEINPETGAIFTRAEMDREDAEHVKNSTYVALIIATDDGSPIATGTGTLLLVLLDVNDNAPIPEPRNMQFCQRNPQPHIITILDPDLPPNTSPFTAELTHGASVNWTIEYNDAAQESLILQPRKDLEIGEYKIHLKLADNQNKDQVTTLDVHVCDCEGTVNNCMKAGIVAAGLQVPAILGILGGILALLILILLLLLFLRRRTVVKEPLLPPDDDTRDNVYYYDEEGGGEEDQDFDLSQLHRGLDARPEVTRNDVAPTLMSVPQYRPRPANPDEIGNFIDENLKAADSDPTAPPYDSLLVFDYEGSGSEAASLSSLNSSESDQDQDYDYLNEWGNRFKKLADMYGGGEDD
UniProt P0DN89: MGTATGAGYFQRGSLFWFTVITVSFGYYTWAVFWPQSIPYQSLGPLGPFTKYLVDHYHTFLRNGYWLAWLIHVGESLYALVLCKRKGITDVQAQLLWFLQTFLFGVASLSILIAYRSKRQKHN
UniProt P05201: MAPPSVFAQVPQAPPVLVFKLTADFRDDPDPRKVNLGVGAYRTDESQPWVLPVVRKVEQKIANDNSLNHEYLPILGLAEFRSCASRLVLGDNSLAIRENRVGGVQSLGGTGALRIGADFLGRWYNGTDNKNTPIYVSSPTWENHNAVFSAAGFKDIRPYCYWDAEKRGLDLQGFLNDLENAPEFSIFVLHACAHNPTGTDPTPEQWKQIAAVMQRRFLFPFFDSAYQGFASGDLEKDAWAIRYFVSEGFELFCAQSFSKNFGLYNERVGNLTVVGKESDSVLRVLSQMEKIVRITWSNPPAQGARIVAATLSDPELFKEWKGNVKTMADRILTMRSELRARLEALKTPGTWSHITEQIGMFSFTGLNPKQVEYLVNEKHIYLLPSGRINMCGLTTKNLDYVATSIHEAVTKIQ
UniProt P10518: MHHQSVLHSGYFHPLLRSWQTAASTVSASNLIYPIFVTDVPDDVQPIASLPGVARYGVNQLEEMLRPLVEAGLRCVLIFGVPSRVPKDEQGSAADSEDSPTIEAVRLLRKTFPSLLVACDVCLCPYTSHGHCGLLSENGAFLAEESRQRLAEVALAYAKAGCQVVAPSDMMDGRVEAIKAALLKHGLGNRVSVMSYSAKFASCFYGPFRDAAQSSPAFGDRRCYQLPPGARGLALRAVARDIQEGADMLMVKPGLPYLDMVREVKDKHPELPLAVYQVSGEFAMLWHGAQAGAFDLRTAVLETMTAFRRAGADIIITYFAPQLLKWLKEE
UniProt P23198: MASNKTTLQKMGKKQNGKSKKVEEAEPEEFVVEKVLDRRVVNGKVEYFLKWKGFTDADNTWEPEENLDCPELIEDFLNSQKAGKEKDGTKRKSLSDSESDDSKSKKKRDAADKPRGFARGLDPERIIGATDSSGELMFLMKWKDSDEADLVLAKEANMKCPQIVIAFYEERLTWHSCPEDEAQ
UniProt P26516: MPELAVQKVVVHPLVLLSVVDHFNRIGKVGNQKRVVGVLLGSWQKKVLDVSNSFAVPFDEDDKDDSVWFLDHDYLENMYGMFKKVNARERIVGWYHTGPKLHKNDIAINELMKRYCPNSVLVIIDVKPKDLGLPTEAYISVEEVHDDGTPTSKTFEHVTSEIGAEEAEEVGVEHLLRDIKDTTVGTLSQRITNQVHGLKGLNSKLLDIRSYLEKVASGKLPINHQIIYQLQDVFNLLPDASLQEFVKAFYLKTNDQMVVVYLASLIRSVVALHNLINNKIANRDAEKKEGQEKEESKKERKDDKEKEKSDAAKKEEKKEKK
UniProt P17751: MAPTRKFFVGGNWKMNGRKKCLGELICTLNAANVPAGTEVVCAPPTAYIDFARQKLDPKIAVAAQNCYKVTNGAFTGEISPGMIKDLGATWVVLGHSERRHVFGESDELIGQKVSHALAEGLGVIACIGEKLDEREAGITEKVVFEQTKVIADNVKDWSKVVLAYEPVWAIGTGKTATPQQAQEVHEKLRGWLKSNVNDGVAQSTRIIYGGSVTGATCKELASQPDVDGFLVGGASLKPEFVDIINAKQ
UniProt P10649: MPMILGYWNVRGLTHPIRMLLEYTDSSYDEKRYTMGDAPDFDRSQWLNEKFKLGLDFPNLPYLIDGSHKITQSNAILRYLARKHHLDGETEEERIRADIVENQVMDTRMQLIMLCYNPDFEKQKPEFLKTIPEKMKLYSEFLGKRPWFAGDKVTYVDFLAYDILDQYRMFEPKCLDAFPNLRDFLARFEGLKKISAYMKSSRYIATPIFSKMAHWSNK
UniProt P16045, whole entry: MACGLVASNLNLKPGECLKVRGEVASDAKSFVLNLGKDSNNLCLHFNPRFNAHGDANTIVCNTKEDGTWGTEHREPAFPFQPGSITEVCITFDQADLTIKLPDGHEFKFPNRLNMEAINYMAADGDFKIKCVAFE
UniProt P21614: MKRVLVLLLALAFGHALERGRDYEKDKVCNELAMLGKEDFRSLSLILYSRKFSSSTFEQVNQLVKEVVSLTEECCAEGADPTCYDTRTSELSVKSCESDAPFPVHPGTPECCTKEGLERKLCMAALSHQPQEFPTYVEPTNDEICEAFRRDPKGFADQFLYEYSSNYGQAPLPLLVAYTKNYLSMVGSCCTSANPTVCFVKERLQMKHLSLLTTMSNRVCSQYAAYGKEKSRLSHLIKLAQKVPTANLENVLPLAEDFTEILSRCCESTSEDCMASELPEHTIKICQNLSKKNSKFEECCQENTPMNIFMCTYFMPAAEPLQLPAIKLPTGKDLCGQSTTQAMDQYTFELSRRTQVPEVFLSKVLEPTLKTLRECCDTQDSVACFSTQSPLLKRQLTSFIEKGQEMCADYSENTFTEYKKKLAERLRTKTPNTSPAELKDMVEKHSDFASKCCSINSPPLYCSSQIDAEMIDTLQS
UniProt P15116: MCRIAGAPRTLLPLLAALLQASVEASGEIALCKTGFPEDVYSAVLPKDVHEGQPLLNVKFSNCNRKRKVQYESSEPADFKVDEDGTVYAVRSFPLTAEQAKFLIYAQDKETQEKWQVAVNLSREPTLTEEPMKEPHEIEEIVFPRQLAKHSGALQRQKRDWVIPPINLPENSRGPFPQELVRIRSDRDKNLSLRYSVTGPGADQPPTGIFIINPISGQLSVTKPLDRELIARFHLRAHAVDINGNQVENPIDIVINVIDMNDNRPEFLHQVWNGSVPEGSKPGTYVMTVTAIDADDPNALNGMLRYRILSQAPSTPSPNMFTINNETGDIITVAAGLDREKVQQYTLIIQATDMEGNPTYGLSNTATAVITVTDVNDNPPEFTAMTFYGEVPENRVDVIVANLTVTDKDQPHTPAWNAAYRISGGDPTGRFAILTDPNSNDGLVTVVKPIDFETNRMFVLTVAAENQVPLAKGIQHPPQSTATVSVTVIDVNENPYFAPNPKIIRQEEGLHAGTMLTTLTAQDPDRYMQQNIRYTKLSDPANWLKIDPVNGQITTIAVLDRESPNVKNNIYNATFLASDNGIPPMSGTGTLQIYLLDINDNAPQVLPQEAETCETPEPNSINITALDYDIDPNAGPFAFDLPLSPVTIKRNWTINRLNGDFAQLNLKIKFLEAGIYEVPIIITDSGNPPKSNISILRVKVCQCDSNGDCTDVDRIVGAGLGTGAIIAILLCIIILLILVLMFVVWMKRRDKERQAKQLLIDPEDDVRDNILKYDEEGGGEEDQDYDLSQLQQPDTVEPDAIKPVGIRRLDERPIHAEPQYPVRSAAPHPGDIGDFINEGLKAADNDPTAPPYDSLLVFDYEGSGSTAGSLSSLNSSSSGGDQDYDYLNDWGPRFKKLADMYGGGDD
UniProt P08122: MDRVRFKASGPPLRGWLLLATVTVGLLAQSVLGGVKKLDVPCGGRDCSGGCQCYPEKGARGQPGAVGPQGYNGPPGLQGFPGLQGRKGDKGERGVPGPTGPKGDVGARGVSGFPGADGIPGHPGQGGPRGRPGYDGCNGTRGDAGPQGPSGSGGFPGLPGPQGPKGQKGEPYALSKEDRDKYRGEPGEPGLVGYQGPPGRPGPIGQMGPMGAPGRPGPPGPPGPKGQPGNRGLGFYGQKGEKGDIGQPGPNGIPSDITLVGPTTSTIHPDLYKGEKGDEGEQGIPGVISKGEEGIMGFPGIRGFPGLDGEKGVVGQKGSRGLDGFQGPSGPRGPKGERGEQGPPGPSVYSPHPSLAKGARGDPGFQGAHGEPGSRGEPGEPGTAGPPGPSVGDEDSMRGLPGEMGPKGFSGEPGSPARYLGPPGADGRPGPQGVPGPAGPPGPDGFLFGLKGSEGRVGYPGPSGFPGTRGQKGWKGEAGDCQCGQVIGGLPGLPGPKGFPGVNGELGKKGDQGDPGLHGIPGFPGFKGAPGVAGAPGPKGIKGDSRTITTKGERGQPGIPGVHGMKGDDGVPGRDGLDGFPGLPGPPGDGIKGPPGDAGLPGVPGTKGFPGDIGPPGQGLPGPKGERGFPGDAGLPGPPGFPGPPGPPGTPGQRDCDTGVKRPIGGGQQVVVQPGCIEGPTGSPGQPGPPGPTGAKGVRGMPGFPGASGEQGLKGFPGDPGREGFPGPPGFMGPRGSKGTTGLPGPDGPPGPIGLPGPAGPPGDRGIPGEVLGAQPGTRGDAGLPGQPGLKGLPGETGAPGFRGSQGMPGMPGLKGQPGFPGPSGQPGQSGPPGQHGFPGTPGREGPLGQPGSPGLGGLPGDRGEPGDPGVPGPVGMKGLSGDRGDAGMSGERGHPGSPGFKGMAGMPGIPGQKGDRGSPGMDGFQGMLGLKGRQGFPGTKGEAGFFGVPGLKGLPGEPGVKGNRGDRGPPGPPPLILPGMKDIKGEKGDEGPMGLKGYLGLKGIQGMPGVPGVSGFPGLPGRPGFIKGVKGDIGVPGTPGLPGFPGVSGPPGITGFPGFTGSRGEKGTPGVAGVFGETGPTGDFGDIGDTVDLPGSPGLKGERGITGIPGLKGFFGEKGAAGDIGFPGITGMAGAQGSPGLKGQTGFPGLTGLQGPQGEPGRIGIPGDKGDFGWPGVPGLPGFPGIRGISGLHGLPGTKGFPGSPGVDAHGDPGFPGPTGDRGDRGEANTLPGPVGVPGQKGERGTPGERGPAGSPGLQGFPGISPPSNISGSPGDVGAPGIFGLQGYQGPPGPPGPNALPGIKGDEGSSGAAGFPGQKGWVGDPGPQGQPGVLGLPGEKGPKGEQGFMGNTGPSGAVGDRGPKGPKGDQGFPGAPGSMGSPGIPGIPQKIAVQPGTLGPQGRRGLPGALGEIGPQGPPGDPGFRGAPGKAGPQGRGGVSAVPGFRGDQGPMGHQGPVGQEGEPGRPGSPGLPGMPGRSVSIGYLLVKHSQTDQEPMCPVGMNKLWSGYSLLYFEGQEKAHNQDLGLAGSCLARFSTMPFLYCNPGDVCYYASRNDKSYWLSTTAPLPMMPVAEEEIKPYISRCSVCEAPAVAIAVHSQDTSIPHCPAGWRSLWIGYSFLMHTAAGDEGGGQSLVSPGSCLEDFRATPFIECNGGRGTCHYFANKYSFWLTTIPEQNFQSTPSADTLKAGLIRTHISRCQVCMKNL
UniProt P11404, whole entry: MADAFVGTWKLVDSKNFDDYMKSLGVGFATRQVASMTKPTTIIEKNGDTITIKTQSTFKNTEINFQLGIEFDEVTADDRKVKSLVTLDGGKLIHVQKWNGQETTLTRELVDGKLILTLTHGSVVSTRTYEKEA
UniProt P11714: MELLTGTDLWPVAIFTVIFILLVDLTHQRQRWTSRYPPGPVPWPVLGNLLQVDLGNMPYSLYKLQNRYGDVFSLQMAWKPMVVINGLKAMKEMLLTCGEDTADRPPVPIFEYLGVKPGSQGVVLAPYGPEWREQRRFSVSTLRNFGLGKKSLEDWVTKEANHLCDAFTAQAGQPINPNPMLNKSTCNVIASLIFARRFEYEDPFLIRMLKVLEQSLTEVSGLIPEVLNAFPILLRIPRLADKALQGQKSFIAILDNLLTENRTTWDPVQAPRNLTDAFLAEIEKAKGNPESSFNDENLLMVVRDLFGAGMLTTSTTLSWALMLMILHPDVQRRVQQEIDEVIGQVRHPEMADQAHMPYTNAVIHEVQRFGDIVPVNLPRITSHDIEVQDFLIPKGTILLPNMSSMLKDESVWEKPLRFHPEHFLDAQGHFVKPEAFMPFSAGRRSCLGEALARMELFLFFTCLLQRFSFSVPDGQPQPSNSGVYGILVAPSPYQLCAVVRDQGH

Compound: CN[C@@H]1C[C@H]2O[C@@](C)([C@@H]1OC)n1c3ccccc3c3c4c(c5c6ccccc6n2c5c31)C(=O)NC4 [staurosporine]
Assay: log2 fold change of pooled soluble protein (PISA), ligand vs vehicle (log2 ratio); higher = more thermally stabilized
Details: ligand concentration: 20 uM; assay format: PISA pool 52.9/55.5/58.6 C

| Target | log2 fold change of pooled soluble protein |
| --- | --- |
| UniProt P13595 | -0.0759 |
| UniProt P16125 | -0.0128 |
| UniProt P09528 | -0.16 |
| UniProt P09803 | 0.0813 |
| UniProt P04627 | -0.0457 |
| UniProt P17427 | 0.0356 |
| P10853;P10854;Q64475;Q64478;Q64525;Q6ZWY9;Q8CGP1;Q8CGP2 | -0.0227 |
| UniProt P0DN89 | -0.0326 |
| UniProt P07361 | 0.068 |
| UniProt P19258 | -0.403 |
| UniProt P05201 | 0.0123 |
| UniProt P26043 | -0.0864 |
| UniProt P27661 | -0.0495 |
| UniProt P10518 | -0.0043 |
| UniProt P23198 | -0.0274 |
| UniProt P14206 | -0.0487 |
| UniProt P23780 | 0.0511 |
| UniProt P26516 | 0.136 |
| UniProt P08003 | -0.0965 |

2 records picked at random from the list so far, as already listed:

| Target | log2 fold change of pooled soluble protein |
| --- | --- |
| UniProt P09803 | 0.0813 |
| P10853;P10854;Q64475;Q64478;Q64525;Q6ZWY9;Q8CGP1;Q8CGP2 | -0.0227 |

More entries:

| Target | log2 fold change of pooled soluble protein |
| --- | --- |
| UniProt P17751 | -0.0215 |
| UniProt P10649 | -0.0671 |
| UniProt P19253 | 0.00632 |
| UniProt P16045 | 0.0512 |
| UniProt P21614 | -0.185 |
| UniProt P07214 | 0.291 |
| UniProt P15920 | -0.0799 |
| UniProt P22682 | 0.349 |
| UniProt P12025 | 0.108 |
| UniProt P15116 | 0.0175 |
| UniProt P11103 | -0.275 |
| UniProt P07901 | -0.0147 |
| UniProt P28063 | -0.179 |
| UniProt P24472 | -0.0801 |
| UniProt P14685 | -0.000694 |
| UniProt P08122 | -0.184 |
| UniProt P11404 | 0.0232 |
| UniProt P18608 | 0.0304 |
| UniProt P11714 | 0.149 |
